CoaBC: 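Enzyme assay of CoaBC with a phosphate dye (Biomol Green) read at 650 nm. Target: Coenzyme A biosynthesis protein CoaBC, Mycobacterium tuberculosis (UniProt P9WNZ1). Tested at 30 µM. Higher reads as stronger inhibition, judged from the few compounds that gave an IC50. Most strong results did not repeat in a second test. About 67,000 compounds were tested under these conditions; 0.06% (about 40) showed 50% or more at least once.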
TcHisRS: 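Histidine-tRNA ligase, Trypanosoma cruzi CL Brener (UniProt Q4DA54). Enzyme assay of histidyl-tRNA synthetase; the read-out is not stated. Tested at 30 µM. The record gives no direction; compounds that gave an IC50 in retests scored well above the rest, so higher reads as stronger inhibition. About 69,000 compounds were tested under these conditions; 0.045% (about 31) showed 50% or more at least once.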

Chains of the proteins cited; added tags and fusions are not shown. Residues count along the entry.
UniProt P9WNZ1, whole entry: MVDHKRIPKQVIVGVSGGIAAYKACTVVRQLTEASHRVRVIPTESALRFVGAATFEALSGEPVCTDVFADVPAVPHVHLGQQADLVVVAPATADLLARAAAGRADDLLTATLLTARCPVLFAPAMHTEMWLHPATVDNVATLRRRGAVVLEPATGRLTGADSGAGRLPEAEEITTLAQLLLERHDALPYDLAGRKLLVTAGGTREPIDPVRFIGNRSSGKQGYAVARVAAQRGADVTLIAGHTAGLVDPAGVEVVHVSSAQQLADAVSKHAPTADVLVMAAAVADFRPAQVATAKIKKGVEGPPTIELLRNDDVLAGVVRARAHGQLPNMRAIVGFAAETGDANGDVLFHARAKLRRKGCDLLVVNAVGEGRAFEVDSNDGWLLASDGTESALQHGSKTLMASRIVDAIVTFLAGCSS
UniProt Q4DA54, 1-478: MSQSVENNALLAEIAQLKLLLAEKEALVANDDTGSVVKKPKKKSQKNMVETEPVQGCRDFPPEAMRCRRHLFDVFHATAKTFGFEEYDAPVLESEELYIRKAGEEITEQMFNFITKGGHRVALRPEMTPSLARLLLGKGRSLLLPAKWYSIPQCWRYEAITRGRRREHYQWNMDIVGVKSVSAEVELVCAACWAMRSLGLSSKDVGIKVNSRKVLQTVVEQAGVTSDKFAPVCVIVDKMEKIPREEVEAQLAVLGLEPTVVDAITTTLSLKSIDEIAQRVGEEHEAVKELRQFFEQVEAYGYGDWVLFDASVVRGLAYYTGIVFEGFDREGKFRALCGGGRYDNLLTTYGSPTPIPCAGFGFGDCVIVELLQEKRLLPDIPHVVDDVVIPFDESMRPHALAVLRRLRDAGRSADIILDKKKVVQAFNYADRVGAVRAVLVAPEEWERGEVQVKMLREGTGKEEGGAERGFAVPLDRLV

The filed quantity is “Percent Effect” (%). The record does not define 0% and 100%; most values in the screen are far below 50% and negative numbers occur (in some assays of this library far below -100). This is an unselected part of the compounds tested.

- COc1ccc(Cl)cc1NCC(=O)NCCNc1ncccn1 : CoaBC: 3.509%; TcHisRS: 5.814%
- CCN(CC)Cc1ccc(CNC(=O)C(C)(C)n2cc(Br)cn2)cc1 : CoaBC: 1.375%; TcHisRS: 3.448%
- Cc1cccc(CN2CC3(CCNCC3)OCC2=O)n1 : CoaBC: -5.176%; TcHisRS: 2.674%
- CN(CC(=O)NCc1ccccn1)C1CCCN(c2cccnn2)C1 (configuration not stated) : CoaBC: 6.769%; TcHisRS: 0.578%
- CN(C)CCO[C@H]1CN(Cc2ccco2)[C@@H]2COC[C@H]12 : CoaBC: 2.222%; TcHisRS: 9.524%
- CCCN1CCN(C(=O)c2cccnc2-n2cncn2)CC1 : CoaBC: 0%; TcHisRS: 8.867%
- CC(=O)N1CCN(C(=O)Nc2ccccc2)CC2(CC(=O)N(C)C2)C1 (configuration not stated) : CoaBC: 0%; TcHisRS: 2.913%
- COCCNC(=O)c1ccccc1-n1cc(CN)cn1 : CoaBC: 1.115%; TcHisRS: 5.993%
- Cc1nc(CN2CC[C@H](OCC3CC3)[C@@H]2Cc2cccnc2)cs1 : CoaBC: -2.469%; TcHisRS: 3.738%
- Cc1cccc(N2N=C(C(=O)NC(C)Cn3cccn3)CCC2=O)c1 (configuration not stated) : CoaBC: -3.478%; TcHisRS: 2.564%
- O=C(c1cccc(Cl)c1Cl)N1CCN(CC(O)Cn2cccn2)CC1 (configuration not stated) : CoaBC: -0.7335%; TcHisRS: 8.743%
- CC(C)c1cc(C(=O)NCCc2nc(-c3ccncc3)n[nH]2)[nH]n1 : CoaBC: 5.569%; TcHisRS: 2.26%
- CCN(CC)CCNC(=O)c1cc(OC)c2ccoc2c1 : CoaBC: 0.578%; TcHisRS: 3.509%
- Cc1cc(NC(=O)CN(c2ccccc2)C(C)C)on1 : CoaBC: -6.88%; TcHisRS: 6.173%
- CC(C)(C(=O)N1CCCC(OCc2cccnc2)C1)n1cccc1 (configuration not stated) : CoaBC: 6.091%; TcHisRS: 0.4484%
- CC(NC(=O)N1CCN(c2cccs2)CC1)c1ccc(C#N)cc1 (configuration not stated) : CoaBC: 1.927%; TcHisRS: -0.5236%
- CCc1n[nH]c(=O)c(C(=O)N2CCSC(C)(C)C2)c1CC : CoaBC: -0.3797%; TcHisRS: 3.727%
- O=C(C1CCCCC1)N1CCC2(CC1)CNCc1ccccc12 : TcHisRS: 11.39%
- Cc1ccc(C2CSCCN2C(=O)c2cccnc2)cc1 (configuration not stated) : CoaBC: 6.904%; TcHisRS: 6.25%
- CCOC(=O)[C@@H]1[C@H]2CN(C(=O)OC)CCN2C[C@H]1c1ccccc1 : CoaBC: 2.179%; TcHisRS: -1.124%
- COc1cc(CN2CCCC2)ccc1OC12CCCN(CC1)C2 (configuration not stated) : CoaBC: 6.747%; TcHisRS: 35.64%
- Cc1n[nH]c(CN2CCN(C(=O)C3CCC3)[C@@H]3CS(=O)(=O)C[C@@H]32)n1 : CoaBC: -4.95%; TcHisRS: 7.229%
- Cc1ncsc1C(=O)OCC1CCN(c2ccccc2)C1 (configuration not stated) : CoaBC: 4.225%; TcHisRS: -4.294%
- O=S(=O)(C1CC1)N1CCCn2nnc(Cn3cccc3)c2C1 : CoaBC: 4.485%; TcHisRS: 6.145%
- CCOc1ccccc1-c1noc(CN2CC(n3cccn3)C2)n1 : CoaBC: 7.436%; TcHisRS: 1.887%
- COCCC1CCN(CC(C)n2cnc3ccccc32)CC1 (configuration not stated) : CoaBC: 2.594%; TcHisRS: 5.155%
- O=C(c1ccccc1Cl)N1CCN(CCc2ccccn2)CC1 : CoaBC: 2.278%; TcHisRS: 1.22%
- c1cc(CN2CCOCC3(CCNCC3)C2)ccn1 : CoaBC: -3.337%; TcHisRS: 4.082%
- CCN(CC)Cc1cc(C(=O)N2CCCC(CC)(C(=O)O)C2)c(C)o1 (configuration not stated) : CoaBC: 1.935%; TcHisRS: 7.389%
- CCCN1CCC(NC(=O)c2ccnc(SCC)c2)CC1 : CoaBC: 2.036%; TcHisRS: 4.819%
- COc1ccc2c(c1)C(C(=O)N(C)CCc1cnn(C)c1)CC(=O)N2 (configuration not stated) : CoaBC: -10.08%; TcHisRS: 5.028%
- Cc1ncsc1CCN(C)C(=O)c1c(O)cccc1O : CoaBC: 3.856%; TcHisRS: -4.469%
- Cc1nn(C)c2c(NCc3ccncc3)nc(C3CC3)nc12 : CoaBC: -1.493%; TcHisRS: 7.018%
- CC(C)(CO)Nc1c(NCc2ccccc2)c(=O)c1=O : CoaBC: 1.772%; TcHisRS: 7.317%
- Cc1nccn1-c1cc(CNS(=O)(=O)N2CCCC(C)C2)ccn1 (configuration not stated) : CoaBC: 2.644%; TcHisRS: 13.92%
- CN(C)S(=O)(=O)N1CC[C@]2(C[C@H](OCc3ccccn3)CO2)C1 : CoaBC: 4.713%; TcHisRS: 0%
- CC(C)OCCCN(Cc1ccncc1)Cc1cccc(F)c1F : CoaBC: 8.516%; TcHisRS: 3.731%
- CSc1ccc(-c2noc(CN(Cc3ccccc3)C(C)C)n2)cc1 : CoaBC: 0.7812%; TcHisRS: 8.808%
- CCc1nc2n(n1)CC(NCc1cc3ccccc3o1)CC2 (configuration not stated) : CoaBC: -3.313%; TcHisRS: -1.235%
- CC(C)CC(=O)N1CCCC1c1cc(CO)[nH]n1 (configuration not stated) : CoaBC: 6.045%; TcHisRS: 10.61%
- Cc1cc(CN2CCCC(CNC(=O)Cn3cccn3)C2)oc1C (configuration not stated) : CoaBC: 2.211%; TcHisRS: 8.235%
- Cn1nc(C(=O)N2CCOCC2)c2c1CN(CC1CC1)C2 : CoaBC: 2.963%; TcHisRS: 10.58%
- N#Cc1cccc(CN2C(=O)C3(CCNCC3)Nc3ccccc32)c1 : CoaBC: -40.98%; TcHisRS: 4%
- O=C1[C@H]2CN(S(=O)(=O)C3CC3)C[C@H]2CN1CC1CC1 : CoaBC: 5.366%; TcHisRS: 14.44%
- c1ccc(CNC[C@H]2Cn3ccnc3CO2)cc1 : CoaBC: 9.934%; TcHisRS: 6.522%
- Cc1cccc(CN2CCCC(O)(CNCCN3CCCCC3)C2=O)c1 (configuration not stated) : CoaBC: -26.95%; TcHisRS: -1.571%

The last 3 entries again:

Compound,CoaBC,TcHisRS
O=C1[C@H]2CN(S(=O)(=O)C3CC3)C[C@H]2CN1CC1CC1,5.366,14.44
c1ccc(CNC[C@H]2Cn3ccnc3CO2)cc1,9.934,6.522
Cc1cccc(CN2CCCC(O)(CNCCN3CCCCC3)C2=O)c1 (configuration not stated),-26.95,-1.571

Data taken from ChEMBL document CHEMBL3988442, “University of Dundee, Small-Polar-MMV Screening Library” (2021).